This note sets out measurements from publication PMC12071843.

The chains behind the UniProt entries cited, without tags or fusion partners. Where a name states a change or a piece, a line headed by the entry shows the natural chain unless it says otherwise.
UniProt P08254: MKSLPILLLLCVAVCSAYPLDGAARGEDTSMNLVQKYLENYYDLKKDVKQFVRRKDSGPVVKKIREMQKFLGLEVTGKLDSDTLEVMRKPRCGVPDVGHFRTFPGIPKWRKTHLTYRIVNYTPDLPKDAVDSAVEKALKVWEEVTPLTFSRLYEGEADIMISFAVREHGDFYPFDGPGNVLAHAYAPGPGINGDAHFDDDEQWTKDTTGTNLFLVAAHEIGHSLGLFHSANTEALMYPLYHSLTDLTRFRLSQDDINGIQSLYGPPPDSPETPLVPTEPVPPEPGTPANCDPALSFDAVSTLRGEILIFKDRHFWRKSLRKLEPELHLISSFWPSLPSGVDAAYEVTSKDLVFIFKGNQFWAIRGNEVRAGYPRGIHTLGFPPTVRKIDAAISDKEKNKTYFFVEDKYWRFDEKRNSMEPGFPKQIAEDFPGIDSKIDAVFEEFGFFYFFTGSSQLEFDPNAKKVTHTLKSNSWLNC

In this test the target is Matrix metalloproteinase 3 (human (endogenous in OVCAR3CIS)) (UniProt P08254). The experiment in a line: affinity purification with mass spectrometry; extracellular MMP3: supernatants of serum-free OVCAR3CIS cells, untreated or cisplatin-treated, pre-cleared on protein A/G magnetic beads, anti-MMP3 antibody (Abcam) 10 ug/200 ug protein at 4 °C overnight, protein A/G magnetic beads (Pierce MS-compatible Magnetic IP Kit), eluate by LC-MS/MS.

Results are given in words; binding and its absence hold for the method and conditions named. Binding seen in cells or lysates may run through a third protein. These calls come from enrichment with a bait or labelling near it, and not all partners need be listed. Sequences can lack the tags named with a protein.

B1: Isoform 2 of Embryonic polyadenylate-binding protein 2 (protein, UniProt A6NDY0-2 1-255)
chain: MWPFPSRSLFPPPTQAWLQTVSSDPEAQGWGAWNETKEILGPEGGEGKEEKEEEEDAEEDQDGDAGFLLSLLEQENLAECPLPDQELEAIKMKVCAMEQAEGTPRPPGVQQQAEEEEGTAAGQLLSPETVGCPLSGTPEEKVEADHRSVYVGNVDYGGSAEELEAHFSRCGEVHRVTILCDKFSGHPKGCCRKEPTSLGSAPQTAGAFEDTQAPGGHPSPTAASRAGPGSDHKGRTGPVENSHHGFHRIKGKTRF
Consider B1, for which the binding entry was “binds”.

B2: Coiled-coil domain-containing protein 25 (protein, UniProt Q86WR0 1-208)
chain: MVFYFTSSSVNSSAYTIYMGKDKYENEDLIKHGWPEDIWFHVDKLSSAHVYLRLHKGENIEDIPKEVLMDCAHLVKANSIQGCKMNNVNVVYTPWSNLKKTADMDVGQIGFHRQKDVKIVTVEKKVNEILNRLEKTKVERFPDLAAEKECRDREERNEKKAQIQEMKKREKEEMKKKREMDELRSYSSLMKVENMSSNQDGNDSDEFM
Consider B2, for which the binding entry is recorded as “binds”.

B3: MORC family CW-type zinc finger protein 4 (protein, UniProt Q8TE76 1-937)
chain: MLLYRGAPAGPGAPGCGLARPGGGPQAFGIRLSTMSPRYLQSNSSSHTRPFSAIAELLDNAVDPDVSARTVFIDVEEVKNKSCLTFTDDGCGMTPHKLHRMLSFGFTDKVIKKSQCPIGVFGNGFKSGSMRLGKDALVFTKNGGTLTVGLLSQTYLECVQAQAVIVPIVPFNQQNKKMIITEDSLPSLEAILNYSIFNRENDLLAQFDAIPGKKGTRVLIWNIRRNKNGKSELDFDTDQYDILVSDFDTEEKMTGGVTSELPETEYSLRAFCGILYMKPRMKIFLRQKKVTTQMIAKSLANVEYDTYKPTFTNKQVRITFGFSCKNSNQFGIMMYHNNRLIKSFEKVGCQVKPTRGEGVGVIGVIECNFLKPAYNKQDFEYTKEYRLTINALAQKLNAYWKEKTSQDNFETSTVARPIPKVPDQTWVQCDECLKWRKLPGKIDPSMLPARWFCYYNSHPKYRRCSVPEEQELTDEDLCLSKAKKQEQTVEEKKKMPMENENHQVFSNPPKILTVQEMAGLNNKTIGYEGIHSPSVLPSGGEESRSPSLQLKPLDSSVLQFSSKYKWILGEEPVEKRRRLQNEMTTPSLDYSMPAPYRRVEAPVAYPEGENSHDKSSSERSTPPYLFPEYPEASKNTGQNREVSILYPGAKDQRQGSLLPEELEDQMPRLVAEESNRGSTTINKEEVNKGPFVAVVGVAKGVRDSGAPIQLIPFNREELAERRKAVESWNPVPYSVASAAIPAAAIGEKARGYEESEGHNTPKLKNQRELEELKRTTEKLERVLAERNLFQQKVEELEQERNHWQSEFKKVQHELVIYSTQEAEGLYWSKKHMGYRQAEFQILKAELERTKEEKQELKEKLKETETHLEMLQKAQVSYRTPEGDDLERALAKLTRLRIHVSYLLTSVLPHLELREIGYDSEQVDGILYTVLEANHILD
B3: the binding entry is “binds”.

B4: Desmocollin-1 (protein, UniProt Q08554 135-894)
chain: RWAPIPASLMENSLGPFPQHVQQIQSDAAQNYTIFYSISGPGVDKEPFNLFYIEKDTGDIFCTRSIDREKYEQFALYGYATTADGYAPEYPLPLIIKIEDDNDNAPYFEHRVTIFTVPENCRSGTSVGKVTATDLDEPDTLHTRLKYKILQQIPDHPKHFSIHPDTGVITTTTPFLDREKCDTYQLIMEVRDMGGQPFGLFNTGTITISLEDENDNPPSFTETSYVTEVEENRIDVEILRMKVQDQDLPNTPHSKAVYKILQGNENGNFIISTDPNTNEGVLCVVKPLNYEVNRQVILQVGVINEAQFSKAASSQTPTMCTTTVTVKIIDSDEGPECHPPVKVIQSQDGFPAGQELLGYKALDPEISSGEGLRYQKLGDEDNWFEINQHTGDLRTLKVLDRESKFVKNNQYNISVVAVDAVGRSCTGTLVVHLDDYNDHAPQIDKEVTICQNNEDFAVLKPVDPDGPENGPPFQFFLDNSASKNWNIEEKDGKTAILRQRQNLDYNYYSVPIQIKDRHGLVATHMLTVRVCDCSTPSECRMKDKSTRDVRPNVILGRWAILAMVLGSVLLLCILFTCFCVTAKRTVKKCFPEDIAQQNLIVSNTEGPGEEVTEANIRLPMQTSNICDTSMSVGTVGGQGIKTQQSFEMVKGGYTLDSNKGGGHQTLESVKGVGQGDTGRYAYTDWQSFTQPRLGEKVYLCGQDEEHKHCEDYVCSYNYEGKGSLAGSVGCCSDRQEEEGLEFLDHLEPKFRTLAKTCIKK
Turning to B4, the binding entry was “binds”.

B5: AF4/FMR2 family member 1 (protein, UniProt P51825 1-1210)
chain: MAAQSSLYNDDRNLLRIREKERRNQEAHQEKEAFPEKIPLFGEPYKTAKGDELSSRIQNMLGNYEEVKEFLSTKSHTHRLDASENRLGKPKYPLIPDKGSSIPSSSFHTSVHHQSIHTPASGPLSVGNISHNPKMAQPRTEPMPSLHAKSCGPPDSQHLTQDRLGQEGFGSSHHKKGDRRADGDHCASVTDSAPERELSPLISLPSPVPPLSPIHSNQQTLPRTQGSSKVHGSSNNSKGYCPAKSPKDLAVKVHDKETPQDSLVAPAQPPSQTFPPPSLPSKSVAMQQKPTAYVRPMDGQDQAPSESPELKPLPEDYRQQTFEKTDLKVPAKAKLTKLKMPSQSVEQTYSNEVHCVEEILKEMTHSWPPPLTAIHTPSTAEPSKFPFPTKDSQHVSSVTQNQKQYDTSSKTHSNSQQGTSSMLEDDLQLSDSEDSDSEQTPEKPPSSSAPPSAPQSLPEPVASAHSSSAESESTSDSDSSSDSESESSSSDSEENEPLETPAPEPEPPTTNKWQLDNWLTKVSQPAAPPEGPRSTEPPRRHPESKGSSDSATSQEHSESKDPPPKSSSKAPRAPPEAPHPGKRSCQKSPAQQEPPQRQTVGTKQPKKPVKASARAGSRTSLQGEREPGLLPYGSRDQTSKDKPKVKTKGRPRAAASNEPKPAVPPSSEKKKHKSSLPAPSKALSGPEPAKDNVEDRTPEHFALVPLTESQGPPHSGSGSRTSGCRQAVVVQEDSRKDRLPLPLRDTKLLSPLRDTPPPQSLMVKITLDLLSRIPQPPGKGSRQRKAEDKQPPAGKKHSSEKRSSDSSSKLAKKRKGEAERDCDNKKIRLEKEIKSQSSSSSSSHKESSKTKPSRPSSQSSKKEMLPPPPVSSSSQKPAKPALKRSRREADTCGQDPPKSASSTKSNHKDSSIPKQRRVEGKGSRSSSEHKGSSGDTANPFPVPSLPNGNSKPGKPQVKFDKQQADLHMREAKKMKQKAELMTDRVGKAFKYLEAVLSFIECGIATESESQSSKSAYSVYSETVDLIKFIMSLKSFSDATAPTQEKIFAVLCMRCQSILNMAMFRCKKDIAIKYSRTLNKHFESSSKVAQAPSPCIASTGTPSPLSPMPSPASSVGSQSSAGSVGSSGVAATISTPVTIQNMTSSYVTITSHVLTAFDLWEQAEALTRKNKEFFARLSTNVCTLALNSSLVDLVHYTRQGFQQLQELTKTP
Take B5: the binding entry was “binds”.

B6: Alpha-1,6-mannosylglycoprotein 6-beta-N-acetylglucosaminyltransferase B (protein, UniProt Q3V5L5 1-792)
chain: MITVNPDGKIMVRRCLVTLRPFRLFVLGIGFFTLCFLMTSLGGQFSARRLGDSPFTIRTEVMGGPESRGVLRKMSDLLELMVKRMDALARLENSSELHRAGGDLHFPADRMPPGAGLMERIQAIAQNVSDIAVKVDQILRHSLLLHSKVSEGRRDQCEAPSDPKFPDCSGKVEWMRARWTSDPCYAFFGVDGTECSFLIYLSEVEWFCPPLPWRNQTAAQRAPKPLPKVQAVFRSNLSHLLDLMGSGKESLIFMKKRTKRLTAQWALAAQRLAQKLGATQRDQKQILVHIGFLTEESGDVFSPRVLKGGPLGEMVQWADILTALYVLGHGLRVTVSLKELQSNLGVPPGRGSCPLTMPLPFDLIYTDYHGLQQMKRHMGLSFKKYRCRIRVIDTFGTEPAYNHEEYATLHGYRTNWGYWNLNPKQFMTMFPHTPDNSFMGFVSEELNETEKRLIKGGKASNMAVVYGKEASIWKLQGKEKFLGILNKYMEIHGTVYYESQRPPEVPAFVKNHGLLPQPEFQQLLRKAKLFIGFGFPYEGPAPLEAIANGCIFLQSRFSPPHSSLNHEFFRGKPTSREVFSQHPYAENFIGKPHVWTVDYNNSEEFEAAIKAIMRTQVDPYLPYEYTCEGMLERIHAYIQHQDFCRAPDPALPEAHAPQSPFVLAPNATHLEWARNTSLAPGAWPPAHALRAWLAVPGRACTDTCLDHGLICEPSFFPFLNSQDAFLKLQVPCDSTESEMNHLYPAFAQPGQECYLQKEPLLFSCAGSNTKYRRLCPCRDFRKGQVALCQGCL
Take B6: the binding result was “binds”.

B7: Complement C1r subcomponent (protein, UniProt P00736 18-705)
chain: SIPIPQKLFGEVTSPLFPKPYPNNFETTTVITVPTGYRVKLVFQQFDLEPSEGCFYDYVKISADKKSLGRFCGQLGSPLGNPPGKKEFMSQGNKMLLTFHTDFSNEENGTIMFYKGFLAYYQAVDLDECASRSKSGEEDPQPQCQHLCHNYVGGYFCSCRPGYELQEDTHSCQAECSSELYTEASGYISSLEYPRSYPPDLRCNYSIRVERGLTLHLKFLEPFDIDDHQQVHCPYDQLQIYANGKNIGEFCGKQRPPDLDTSSNAVDLLFFTDESGDSRGWKLRYTTEIIKCPQPKTLDEFTIIQNLQPQYQFRDYFIATCKQGYQLIEGNQVLHSFTAVCQDDGTWHRAMPRCKIKDCGQPRNLPNGDFRYTTTMGVNTYKARIQYYCHEPYYKMQTRAGSRESEQGVYTCTAQGIWKNEQKGEKIPRCLPVCGKPVNPVEQRQRIIGGQKAKMGNFPWQVFTNIHGRGGGALLGDRWILTAAHTLYPKEHEAQSNASLDVFLGHTNVEELMKLGNHPIRRVSVHPDYRQDESYNFEGDIALLELENSVTLGPNLLPICLPDNDTFYDLGLMGYVSGFGVMEEKIAHDLRFVRLPVANPQACENWLRGKNRMDVFSQNMFCAGHPSLKQDACQGDSGGVFAVRDPNTDRWVATGIVSWGIGCSRGYGFYTKVLNYVDWIKKEMEEED
For the molecule B7, the binding entry was “binds”.
